Measurements from US20240190970A1.
No constants are given. Whether binding was seen depends on the method and setting. Some results given as binding are weak or reduced against the parent protein; the word gives no strength.

Assays:
[1] = target: Gal9 (%Gal9+ of CD3+, CD11b+ and EpCam+ cells); assay: flow cytometry, % Gal9+ among CD11b+ cells, S3 fraction of a pancreatic adenocarcinoma biopsy
[2] = target: Gal9 (%Gal9+ of CD3+, CD11b+ and EpCam+ cells); assay: flow cytometry, % Gal9+ among CD11b+ cells, S3 fraction of a colorectal carcinoma biopsy
[3] = target: Gal9 (%Gal9+ of CD3+, CD11b+ and EpCam+ cells); assay: flow cytometry, % Gal9+ among CD11b+ cells, S2 fraction of a pancreatic adenocarcinoma biopsy
[4] = target: Gal9 (%Gal9+ of CD3+, CD11b+ and EpCam+ cells); assay: flow cytometry, % Gal9+ among CD3+ cells, S2 fraction of a second pancreatic adenocarcinoma biopsy
[5] = target: Gal9 (%Gal9+ of CD3+, CD11b+ and EpCam+ cells); assay: flow cytometry, % Gal9+ among EpCam+ cells, S2 fraction of a second pancreatic adenocarcinoma biopsy
[6] = target: Gal9 (%Gal9+ of CD3+, CD11b+ and EpCam+ cells); assay: flow cytometry, % Gal9+ among EpCam+ cells, S2 fraction of a colorectal carcinoma biopsy
[7] = target: Gal9 (%Gal9+ of CD3+, CD11b+ and EpCam+ cells); assay: flow cytometry, % Gal9+ among CD3+ cells, S2 fraction of a pancreatic adenocarcinoma biopsy
[8] = target: Gal9 (%Gal9+ of CD3+, CD11b+ and EpCam+ cells); assay: flow cytometry, % Gal9+ among CD11b+ cells, S2 fraction of a second pancreatic adenocarcinoma biopsy
[9] = target: Gal9 (%Gal9+ of CD3+, CD11b+ and EpCam+ cells); assay: flow cytometry, % Gal9+ among CD3+ cells, S3 fraction of a pancreatic adenocarcinoma biopsy
[10] = target: Gal9 (%Gal9+ of CD3+, CD11b+ and EpCam+ cells); assay: flow cytometry, % Gal9+ among CD3+ cells, S3 fraction of a second pancreatic adenocarcinoma biopsy
[11] = target: Gal9 (%Gal9+ of CD3+, CD11b+ and EpCam+ cells); assay: flow cytometry, % Gal9+ among EpCam+ cells, S3 fraction of a second pancreatic adenocarcinoma biopsy
[12] = target: Gal9 (%Gal9+ of CD3+, CD11b+ and EpCam+ cells); assay: flow cytometry, % Gal9+ among EpCam+ cells, S3 fraction of a pancreatic adenocarcinoma biopsy
[13] = target: Gal9 (%Gal9+ of CD3+, CD11b+ and EpCam+ cells); assay: flow cytometry, % Gal9+ among CD3+ cells, S3 fraction of a colorectal carcinoma biopsy
[14] = target: Gal9 (%Gal9+ of CD3+, CD11b+ and EpCam+ cells); assay: flow cytometry, % Gal9+ among CD11b+ cells, S2 fraction of a colorectal carcinoma biopsy
[15] = target: Gal9 (%Gal9+ of CD3+, CD11b+ and EpCam+ cells); assay: flow cytometry, % Gal9+ among EpCam+ cells, S3 fraction of a colorectal carcinoma biopsy
[16] = target: Gal9 (%Gal9+ of CD3+, CD11b+ and EpCam+ cells); assay: flow cytometry, % Gal9+ among CD11b+ cells, S3 fraction of a second pancreatic adenocarcinoma biopsy
[17] = target: Gal9 (%Gal9+ of CD3+, CD11b+ and EpCam+ cells); assay: flow cytometry, % Gal9+ among EpCam+ cells, S2 fraction of a pancreatic adenocarcinoma biopsy
[18] = target: Gal9 (%Gal9+ of CD3+, CD11b+ and EpCam+ cells); assay: flow cytometry, % Gal9+ among CD3+ cells, S2 fraction of a colorectal carcinoma biopsy
[19] = target: galectin-9 on the cell surface of the galectin-9 positive CRL-2134 cell line (human (human cancer cell line)) (UniProt O00182); assay: cell-based binding
[20] = target: cynomolgus galectin-9 CRD2 domain (cynomolgus monkey); assay: bead-based binding assay
[21] = target: Galectin-9 on CDI's HuProt Human Proteome Microarray (human) (UniProt O00182); assay: HuProt array, High-Spec antibody cross-reactivity assay, native proteins
[22] = target: cynomolgus galectin-9 CRD2 domain (cynomolgus monkey); assay: in vitro binding (summary of Table 17)
[23] = target: Galectin-9 on CDI's HuProt Human Proteome Microarray (human) (UniProt O00182); assay: HuProt Human Proteome Microarray, fluorescent secondary antibody
[24] = target: galectin-9 on the cell surface of the galectin-9 positive CRL-2134 cell line (human (human cancer cell line)) (UniProt O00182); assay: cell surface staining, flow cytometry

Measured: binding

B1: G9.2-17 Fab (Fab, V domains shown)
VH: EVQLVESGGGLVQPGGSLRLSCAASGFTVSSSSIHWVRQAPGKGLEWVAYISSSSGYTYYADSVKGRFTISADTSKNTAYLQMNSLRAEDTAVYYCARYWSYPSWWPYRGMDYWGQGTLVTVSS
VL: DIQMTQSPSSLSASVGDRVTITCRASQSVSSAVAWYQQKPGKAPKLLIYSASSLYSGVPSRFSGSRSGTDFTLTISSLQPEDFATYYCQQSSTDPITFGQGTKVEIKR
not listed: [19] | [20] | [21] | [22] | [23] | [24]
binds: all other assays above

B2: G9.2-17 mIgG1 (antibody, V domains shown)
VH: B1 VH
VL: B1 VL
binds: [19] | [20]

B3: G9.2-17 (IgG4) (antibody, V domains shown)
VH: B1 VH
VL: B1 VL
binds: [21] | [22] | [23] | [24]
